The whole screen tested about 1,400 compounds, of which fewer than 10 were called active. Not shown: some 8% with an inconclusive outcome. Calls follow the shape of the dose curve; as a rule, active = well fitted curve in the direction sought with a large enough effect; inconclusive = small, poorly fitted or top-dose-only effect, or another doubt; inactive = no such curve, though single readings can be large or run the other way. This is one part of the list.

Chains of the proteins cited; added tags and fusions are not shown.
UniProt Q8NER1, whole entry, looked up: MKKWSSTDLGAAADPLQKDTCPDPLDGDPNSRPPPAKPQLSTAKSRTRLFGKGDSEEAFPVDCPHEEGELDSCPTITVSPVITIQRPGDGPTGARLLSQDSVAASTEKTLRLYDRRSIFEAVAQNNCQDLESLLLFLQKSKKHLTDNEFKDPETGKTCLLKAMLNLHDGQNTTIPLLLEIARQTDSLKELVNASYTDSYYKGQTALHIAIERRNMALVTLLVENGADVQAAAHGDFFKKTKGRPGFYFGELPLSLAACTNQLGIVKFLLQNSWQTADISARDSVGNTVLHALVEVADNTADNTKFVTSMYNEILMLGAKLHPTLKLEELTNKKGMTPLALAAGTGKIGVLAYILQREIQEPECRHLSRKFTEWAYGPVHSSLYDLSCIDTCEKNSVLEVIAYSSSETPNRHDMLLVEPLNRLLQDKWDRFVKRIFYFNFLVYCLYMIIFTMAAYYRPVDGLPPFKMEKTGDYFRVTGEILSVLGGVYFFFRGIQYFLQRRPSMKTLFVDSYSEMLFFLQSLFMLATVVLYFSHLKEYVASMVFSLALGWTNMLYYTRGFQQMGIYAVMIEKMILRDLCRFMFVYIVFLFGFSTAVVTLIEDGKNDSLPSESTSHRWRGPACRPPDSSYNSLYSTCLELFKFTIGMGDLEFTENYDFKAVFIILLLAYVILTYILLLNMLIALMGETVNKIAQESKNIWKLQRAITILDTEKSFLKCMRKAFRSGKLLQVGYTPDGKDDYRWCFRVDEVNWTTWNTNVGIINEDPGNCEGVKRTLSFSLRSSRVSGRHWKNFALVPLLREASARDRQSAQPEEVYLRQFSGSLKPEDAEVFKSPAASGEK

For this assay, the target named is Transient receptor potential cation channel subfamily V member 1 (Homo sapiens) (UniProt Q8NER1). Put plainly: qHTS Assay for Compounds that Act as Potentiators of the Vanilloid Receptor 1: Hit Validation. Also: % of control where 0% means no effect. Conditions: TRPV1-expressing cells, Fluo-8 calcium influx, capsaicin EC20; series mostly up to 42.1 µM; activity change, positive = potentiation: at the top concentration. The procedure, abridged:
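Calcium influx via Fluo-8 fluorescence (480/520 nm) on FDSS: 10 s baseline, 3 min compound read, 2 min read after EC20 capsaicin. TRPV1-expressing cells plated 2000/well, grown overnight at 35.5 °C.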
A general note: Quantitative high-throughput screening tests each substance at several concentrations.
As to `O=C(Cc1ccccc1)NC(=S)Nc1ccc(OC(F)F)cc1`, the “activity change, positive = potentiation” value is inactive: -38.1%.

Take `CCCCCC1CCC(C(=O)N2CCOCC2)CC1` (centres undefined): the “activity change, positive = potentiation” value is inactive: -36.1%.

`Oc1ccccc1N=Cc1c(O)ccc2ccccc12`: the “activity change, positive = potentiation” value was inactive: -39.7%.

Take `Cc1ccc(C)c(S(=O)(=O)N2CCN(C(=O)c3ccncc3)CC2)c1`: the “activity change, positive = potentiation” value is inactive: -38.2%.

As to `Cc1ccc(S(=O)(=O)N(C)C)cc1NC(=O)c1ccc2ccccc2n1`, the “activity change, positive = potentiation” value is inactive: 2.32%.

Take `CCOC(=O)C1CCN(S(=O)(=O)c2ccc(CNC(=O)c3ccccc3)s2)CC1`: the “activity change, positive = potentiation” value is inactive: -4.78%.

Turning to `O=C(Nc1ccc(Cl)cc1)Nc1cccc2nsnc12`, the “activity change, positive = potentiation” value was inactive: -37%.

As to `COc1ccc(CC(=O)Nc2cccc3ccccc23)cc1OC`, the “activity change, positive = potentiation” value is inactive: -26.5%.

Turning to `COc1cccc(-c2csc(N3CCN(CC(=O)NNC(=O)c4ccco4)CC3)n2)c1`, the “activity change, positive = potentiation” value was inactive: 4.79%.

`CC(C)(C)c1ccc(/C=N/OCC(=O)NCc2ccc(F)cc2)cc1`: the “activity change, positive = potentiation” value was inactive: -39.6%.

As to `C#CCOCCOCCOCCNc1nc(N2CCN(C(=O)[C@H]([C@@H](C)O)n3cc(CCCCN)nn3)CC2)nc(N2CCN(C(=O)[C@H](CCCCN)n3cc(CC(C)O)nn3)CC2)n1` (some centres undefined), the “activity change, positive = potentiation” value was inactive: -1.19%.

In the case of `Cc1ccccc1C(=O)Nc1nnc(-c2ccc(C(C)(C)C)cc2)s1`, the “activity change, positive = potentiation” value is inactive: -7.15%.

With `CC(C)(C)c1ccc(S(=O)(=O)Nc2noc3ccccc23)cc1`, the “activity change, positive = potentiation” value is inactive: -12.1%.

Regarding `CC(C)NC(=O)C1CC=CCC1C(=O)O` (centres undefined), the “activity change, positive = potentiation” value is inactive: -2.64%.

Turning to `O=C1N=C(N2CCCCC2)S/C1=C\c1ccc(Br)cc1`, the “activity change, positive = potentiation” value was inactive: -38.1%.

For `COc1cc(C(=O)NCC(=O)NCCN2C(=O)S/C(=C\c3ccccc3Cl)C2=O)cc(OC)c1OC`, the “activity change, positive = potentiation” value is inactive: 1.09%.

As for `CN(CC(=O)Nc1ccc(N2CCOCC2)cc1)C(=O)CCNC(=O)c1ccc(Br)cc1`, the “activity change, positive = potentiation” value is inactive: 3.67%.

For the compound `NC(=O)C1CCN(C(=O)CCSCc2ccc(Cl)c(Cl)c2)CC1`, the “activity change, positive = potentiation” value was inactive: -37.3%.

Take `COc1ccc(C(=O)C2CCCN(C(=O)CCNC(C)=O)C2)cc1OC` (centres undefined): the “activity change, positive = potentiation” value is inactive: -12.9%.

Consider `Cc1ccc(C(=O)NNC(=O)C2CC2)cc1Br`, for which the “activity change, positive = potentiation” value was inactive: 1.82%.

`Cc1c(C(=O)Nc2cccc([N+](=O)[O-])c2)cnn1-c1ccccc1`: the “activity change, positive = potentiation” value was inactive: -30.5%.

In the case of `COc1cc(C(=O)NCC(=O)OCC(=O)N2CCc3ccccc32)cc(OC)c1OC`, the “activity change, positive = potentiation” value is inactive: -7.21%.

Turning to `Cn1c(SCC(=O)Nc2ccc(F)cc2)nnc1-c1cccnc1`, the “activity change, positive = potentiation” value was inactive: 1.91%.

With `Clc1ccc2c(c1)c1cc(Cl)ccc1n2CN1CCOCC1`, the “activity change, positive = potentiation” value is inactive: -6.88%.

`CCCCCC(=O)Nc1cccc(C2=NOC3(C2)C[C@H](C(N)=O)N(C(=O)CCCCC)C3)c1` (some centres undefined): the “activity change, positive = potentiation” value is inactive: 10.4%.

In the case of `COc1ccc(C(=O)Nc2ccc(S(=O)(=O)Nc3cnc4ccccc4n3)cc2)cc1`, the “activity change, positive = potentiation” value is inactive: -12%.

For the compound `COc1ccc(-n2c(SCC(N)=O)nc3nc4c(cc3c2=O)COC(C)(C)C4)cc1`, the “activity change, positive = potentiation” value is inactive: 13.3%.

For `COc1cccc(N=Nc2ccc3ccccc3c2O)c1`, the “activity change, positive = potentiation” value is inactive: -10.6%.

Turning to `O=C(N=C1SC2CS(=O)(=O)CC2N1c1cc(Cl)ccc1Cl)C1CCCO1` (centres undefined), the “activity change, positive = potentiation” value was inactive: -1.62%.

For `O=C(CSc1ccc(-c2ccco2)nn1)Nc1ccccc1`, the “activity change, positive = potentiation” value was inactive: -10.3%.

As to `Cc1cc(N2CCCC(C(=O)Nc3ccc4c(c3)CCC4)C2)n2ncnc2n1` (centres undefined), the “activity change, positive = potentiation” value was inactive: -34.5%.

As to `COc1ccc(-n2nc(C(=O)NCC(=O)NCCC3=CCCCC3)c3ccccc3c2=O)cc1OC`, the “activity change, positive = potentiation” value was inactive: 3.24%.

On to `Cc1ccc(-n2ncc3c(NCCCOC(C)C)ncnc32)c(C)c1`, for which the “activity change, positive = potentiation” value was inactive: 1.45%.

In the case of `C/C(=N/NC(=O)c1ccncc1)c1c[nH]c2ccccc12`, the “activity change, positive = potentiation” value was inactive: -5.28%.

For the compound `COc1ccc(C(NC(=O)CC(C)C)c2c(O)ccc3ccccc23)cc1` (centres undefined), the “activity change, positive = potentiation” value was inactive: -8.58%.

`O=C(Nc1ccc(Cl)cc1)OCc1cn(-c2ccccc2)nn1`: the “activity change, positive = potentiation” value is inactive: 8.88%.

Take `CCc1ccc(NC(=O)c2ccc(S(=O)(=O)NCc3cccnc3)cc2)cc1`: the “activity change, positive = potentiation” value was inactive: -35.4%.

As for `CCCCCCN1N=C(C)C(C(=O)c2ccc(Cl)cc2)C1=O` (centres undefined), the “activity change, positive = potentiation” value was inactive: -1.6%.

With `CCOc1ccccc1OCCCNCc1ccccc1`, the “activity change, positive = potentiation” value is inactive: 0.278%.

As for `Cc1nc2c(S(=O)(=O)c3ccccc3)cnn2c(C)c1C`, the “activity change, positive = potentiation” value was inactive: -4.75%.

Regarding `N#Cc1c(N2C(=O)Nc3ccccc3N2O)sc2c1CCCCCC2`, the “activity change, positive = potentiation” value was inactive: 8.21%.

Consider `O=C(NCc1cccnc1)C1CCC(c2ccc(Cl)cc2)CC1` (centres undefined), for which the “activity change, positive = potentiation” value was inactive: -35.9%.

Consider `CCC(C)Sc1ccc(-c2nc3ccc(C)cn3c2NCc2ccccc2)cc1OC` (centres undefined), for which the “activity change, positive = potentiation” value was inactive: -38.5%.

On to `Cc1nc2c(=O)n(-c3cccc(C(F)(F)F)c3)nc(C)c2s1`, for which the “activity change, positive = potentiation” value is inactive: -37.1%.

Take `CCCOC(=O)c1ccc(NC(=O)C2C3CCC(C3)C2C(=O)O)cc1` (centres undefined): the “activity change, positive = potentiation” value was inactive: -30.3%.

Turning to `Cc1ccc(S(=O)(=O)N(C)C)cc1NC(=O)c1ccccc1SCC(=O)N1CCCC1`, the “activity change, positive = potentiation” value is inactive: -3.17%.

Consider `Cn1c(=O)n(C)c2cc3[nH]cnc3cc21`, for which the “activity change, positive = potentiation” value was inactive: -1.1%.

Turning to `COc1ccc(N2CCC(CNS(=O)(=O)c3cccc(C(F)(F)F)c3)C2)cc1` (centres undefined), the “activity change, positive = potentiation” value was inactive: -5.77%.

Regarding `Cc1cccc(C)c1OCC(=O)Nc1cccc(S(=O)(=O)N2CCCC2)c1`, the “activity change, positive = potentiation” value is inactive: -3.66%.

`O=C(NCc1ccc(F)cc1)C1CCCN(c2nc3ccsc3c(=O)s2)C1` (centres undefined): the “activity change, positive = potentiation” value was inactive: -25.5%.

As to `COc1ccc(S(=O)CC(=O)Nc2ccccc2Cl)cc1` (centres undefined), the “activity change, positive = potentiation” value was inactive: -3.76%.

On to `Cc1cc(C)cc(NC(=S)N2CCC(NC(=O)C3CCCCC3)CC2)c1`, for which the “activity change, positive = potentiation” value was inactive: -2.73%.

In the case of `COc1cccc(-c2nc3c(c(=O)[nH]c(=O)n3Cc3ccccc3)n2CCO)c1OC(F)F`, the “activity change, positive = potentiation” value was inactive: -7.88%.

In the case of `CCCn1c(C(C)Nc2nc(-c3cc(Cl)c(N)c(Cl)c3)cs2)nc2cc(Cl)c(N3CCCCC3)cc21` (centres undefined), the “activity change, positive = potentiation” value was inactive: -34%.

In the case of `O=C(N/N=C/c1cccnc1)c1ccc2c(c1)OCO2`, the “activity change, positive = potentiation” value was inactive: -7.94%.

Consider `COc1ccc(C(=O)NCCC2=CCCCC2)cc1[N+](=O)[O-]`, for which the “activity change, positive = potentiation” value was inactive: -32.8%.

`CC(=O)c1c[nH]c(C(=O)NCc2ccccc2Cl)c1`: the “activity change, positive = potentiation” value is inactive: 7.13%.

On to `CCN(CCNC(=O)c1ccc(C#N)cc1)c1cccc(C)c1`, for which the “activity change, positive = potentiation” value is inactive: -38.9%.

Turning to `Cc1cc2c(NC(=O)Nc3ccc(C(C)(C)C)cc3)cccc2nn1`, the “activity change, positive = potentiation” value was inactive: -38.9%.

As for `CCCCn1c(=O)[nH]c(=O)c2c1nc(-c1ccc(OC)c(Br)c1)n2CC(C)C`, the “activity change, positive = potentiation” value was inactive: -3.67%.

On to `O=C(Nc1ccc(Cl)cc1)c1ccc2snnc2c1`, for which the “activity change, positive = potentiation” value is inactive: -36%.

On to `CCN(CC)CCNC(=O)C12CC3CC(CC(C3)C1)C2`, for which the “activity change, positive = potentiation” value was inactive: -0.879%.

Consider `Cc1ccc(NC(=O)CSc2nnc(-c3cc(C)[nH]n3)n2N)c(C)c1`, for which the “activity change, positive = potentiation” value is inactive: -5.45%.

In the case of `COc1ccc(OC)c(S(=O)(=O)N2CCC(C(=O)NCCc3ccc(OC)c(OC)c3)CC2)c1`, the “activity change, positive = potentiation” value was inactive: -8.82%.

Regarding `O=[N+]([O-])c1ccc(Cl)c(C[n+]2cccc3ccccc32)c1`, the “activity change, positive = potentiation” value is inactive: -5.15%.

Consider `C=CCN(Cc1nc(-c2ccccc2)no1)C(=O)c1ccco1`, for which the “activity change, positive = potentiation” value was inactive: 1.6%.

Consider `COc1ccc(-c2cn3cc(C)ccc3n2)cc1OC`, for which the “activity change, positive = potentiation” value was inactive: -5.92%.

Take `O=C(Nc1cccnc1)c1ccc(-c2ccccc2)cc1`: the “activity change, positive = potentiation” value is inactive: -39.5%.

For `O=C(NCc1ccccc1Cl)C1CCCN1C(=O)NC1CCCCC1` (centres undefined), the “activity change, positive = potentiation” value was inactive: -2.85%.

The values are drawn from PubChem BioAssay AID623959 (National Center for Advancing Translational Sciences (NCATS), 2012).
